± gives the standard deviation of the averaged measurements. Some of the results follow.
Compound: Nc1nc2c(ncn2[C@@H]2O[C@H](COP(=O)(O)OP(=O)(O)OP(=O)(O)O)[C@@H](O)[C@H]2O)c(=O)[nH]1 [guanosine triphosphate]
Assay: NP40-soluble protein abundance relative to vehicle (solubility fold change) (ratio); higher = more soluble protein in presence of GTP
In short: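 Data come from three independent experiments in which Dounce-homogenised Jurkat crude lysate was treated at eight concentrations from 0.1 to 10 mM. Treatment ran 10 min at room temperature and then 3 min at 37 °C, after which 0.8% NP40 and benzonase were added for 60 min at 4 °C before ultracentrifugation. The supernatant underwent TMT labelling and LC-MS/MS, and vsn-normalised intensities were expressed as fold change against the detergent-processed vehicle in each replicate.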

The chains behind the UniProt entries cited, without tags or fusion partners. Where a name states a change or a piece, a line headed by the entry shows the natural chain unless it says otherwise.
UniProt Q86XI2: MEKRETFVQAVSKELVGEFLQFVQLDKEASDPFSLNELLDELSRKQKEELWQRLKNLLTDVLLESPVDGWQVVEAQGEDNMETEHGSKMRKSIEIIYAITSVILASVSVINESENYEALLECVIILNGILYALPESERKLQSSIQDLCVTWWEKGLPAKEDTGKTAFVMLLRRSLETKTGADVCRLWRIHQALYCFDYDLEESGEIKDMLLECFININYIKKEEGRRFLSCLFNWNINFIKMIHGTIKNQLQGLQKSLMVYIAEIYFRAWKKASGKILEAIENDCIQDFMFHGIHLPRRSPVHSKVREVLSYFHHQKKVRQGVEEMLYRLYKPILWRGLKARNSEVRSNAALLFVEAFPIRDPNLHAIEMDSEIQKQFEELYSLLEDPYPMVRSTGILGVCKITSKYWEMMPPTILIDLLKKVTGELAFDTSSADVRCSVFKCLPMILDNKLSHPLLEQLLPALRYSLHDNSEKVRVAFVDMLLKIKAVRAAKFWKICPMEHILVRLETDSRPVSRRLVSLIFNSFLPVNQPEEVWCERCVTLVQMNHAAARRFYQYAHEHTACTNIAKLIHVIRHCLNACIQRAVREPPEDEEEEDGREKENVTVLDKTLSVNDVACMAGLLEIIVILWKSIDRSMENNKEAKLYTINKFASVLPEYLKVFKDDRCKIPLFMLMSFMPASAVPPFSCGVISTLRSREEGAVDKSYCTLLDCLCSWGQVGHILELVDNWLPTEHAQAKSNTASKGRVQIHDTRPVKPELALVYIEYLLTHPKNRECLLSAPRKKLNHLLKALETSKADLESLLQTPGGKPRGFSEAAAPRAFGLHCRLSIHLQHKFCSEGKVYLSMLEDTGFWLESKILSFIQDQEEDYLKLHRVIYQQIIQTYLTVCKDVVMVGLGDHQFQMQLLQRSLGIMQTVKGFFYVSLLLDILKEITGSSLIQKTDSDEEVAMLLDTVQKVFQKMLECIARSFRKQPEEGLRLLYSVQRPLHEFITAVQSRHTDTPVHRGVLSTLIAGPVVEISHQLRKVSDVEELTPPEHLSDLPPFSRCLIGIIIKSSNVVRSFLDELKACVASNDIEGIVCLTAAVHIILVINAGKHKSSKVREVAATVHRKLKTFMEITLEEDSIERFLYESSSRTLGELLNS
UniProt Q8NG31: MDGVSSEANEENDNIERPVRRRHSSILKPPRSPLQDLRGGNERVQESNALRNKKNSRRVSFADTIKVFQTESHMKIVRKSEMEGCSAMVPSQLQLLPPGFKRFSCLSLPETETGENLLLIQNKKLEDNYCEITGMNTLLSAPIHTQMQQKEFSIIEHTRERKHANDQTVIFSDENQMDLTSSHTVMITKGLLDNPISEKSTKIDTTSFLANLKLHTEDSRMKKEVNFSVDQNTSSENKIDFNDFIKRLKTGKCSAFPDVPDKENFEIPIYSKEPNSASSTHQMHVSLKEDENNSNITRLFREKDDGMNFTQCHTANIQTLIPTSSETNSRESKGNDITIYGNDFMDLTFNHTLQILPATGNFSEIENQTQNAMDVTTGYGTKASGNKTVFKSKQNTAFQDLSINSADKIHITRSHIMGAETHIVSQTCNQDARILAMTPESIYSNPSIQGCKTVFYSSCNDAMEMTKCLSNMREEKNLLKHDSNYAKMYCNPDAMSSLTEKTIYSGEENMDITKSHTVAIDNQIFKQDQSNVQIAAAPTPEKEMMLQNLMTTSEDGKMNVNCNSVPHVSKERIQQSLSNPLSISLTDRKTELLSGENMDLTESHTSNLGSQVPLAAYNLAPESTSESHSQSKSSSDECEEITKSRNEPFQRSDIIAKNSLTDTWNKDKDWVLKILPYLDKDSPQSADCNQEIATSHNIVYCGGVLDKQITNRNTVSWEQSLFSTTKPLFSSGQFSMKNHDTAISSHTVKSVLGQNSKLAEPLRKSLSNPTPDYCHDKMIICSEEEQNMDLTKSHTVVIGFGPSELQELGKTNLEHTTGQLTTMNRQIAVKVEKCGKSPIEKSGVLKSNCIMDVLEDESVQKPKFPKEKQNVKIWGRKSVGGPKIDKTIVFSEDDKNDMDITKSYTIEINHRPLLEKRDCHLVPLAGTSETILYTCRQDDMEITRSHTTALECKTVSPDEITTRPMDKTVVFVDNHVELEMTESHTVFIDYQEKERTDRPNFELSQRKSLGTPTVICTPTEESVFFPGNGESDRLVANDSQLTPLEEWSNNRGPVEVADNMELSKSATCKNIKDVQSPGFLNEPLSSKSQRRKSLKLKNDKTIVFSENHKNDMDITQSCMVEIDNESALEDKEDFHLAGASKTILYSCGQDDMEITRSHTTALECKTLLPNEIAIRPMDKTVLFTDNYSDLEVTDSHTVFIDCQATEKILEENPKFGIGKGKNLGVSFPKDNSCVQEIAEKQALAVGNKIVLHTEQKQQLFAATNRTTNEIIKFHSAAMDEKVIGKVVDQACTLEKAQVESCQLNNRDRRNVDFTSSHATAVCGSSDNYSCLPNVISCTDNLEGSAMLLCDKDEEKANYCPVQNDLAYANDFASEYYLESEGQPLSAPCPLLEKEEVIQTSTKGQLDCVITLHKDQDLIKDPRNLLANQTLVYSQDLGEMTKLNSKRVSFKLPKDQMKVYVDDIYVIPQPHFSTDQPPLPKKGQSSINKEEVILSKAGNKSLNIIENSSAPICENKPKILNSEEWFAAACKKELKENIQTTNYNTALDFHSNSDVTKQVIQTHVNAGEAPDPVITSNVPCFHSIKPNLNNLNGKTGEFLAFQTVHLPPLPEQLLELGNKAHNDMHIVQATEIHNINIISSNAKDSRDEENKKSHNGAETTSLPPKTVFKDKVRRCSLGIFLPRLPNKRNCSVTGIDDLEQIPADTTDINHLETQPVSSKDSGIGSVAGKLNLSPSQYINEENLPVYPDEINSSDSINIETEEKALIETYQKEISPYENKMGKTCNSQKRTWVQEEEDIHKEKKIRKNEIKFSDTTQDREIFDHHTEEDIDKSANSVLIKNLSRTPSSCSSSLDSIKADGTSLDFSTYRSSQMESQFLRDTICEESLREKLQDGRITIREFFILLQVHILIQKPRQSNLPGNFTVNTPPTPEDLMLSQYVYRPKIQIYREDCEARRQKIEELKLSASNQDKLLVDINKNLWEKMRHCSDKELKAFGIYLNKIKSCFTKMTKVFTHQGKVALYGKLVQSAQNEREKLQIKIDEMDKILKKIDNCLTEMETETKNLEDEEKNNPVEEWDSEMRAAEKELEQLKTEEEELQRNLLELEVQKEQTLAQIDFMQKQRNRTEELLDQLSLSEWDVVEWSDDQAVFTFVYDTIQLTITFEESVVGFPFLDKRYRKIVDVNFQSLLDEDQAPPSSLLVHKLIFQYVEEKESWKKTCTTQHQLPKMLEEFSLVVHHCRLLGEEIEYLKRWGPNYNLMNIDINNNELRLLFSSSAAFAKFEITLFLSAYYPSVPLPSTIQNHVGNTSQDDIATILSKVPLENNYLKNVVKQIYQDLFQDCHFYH
UniProt Q8IY18: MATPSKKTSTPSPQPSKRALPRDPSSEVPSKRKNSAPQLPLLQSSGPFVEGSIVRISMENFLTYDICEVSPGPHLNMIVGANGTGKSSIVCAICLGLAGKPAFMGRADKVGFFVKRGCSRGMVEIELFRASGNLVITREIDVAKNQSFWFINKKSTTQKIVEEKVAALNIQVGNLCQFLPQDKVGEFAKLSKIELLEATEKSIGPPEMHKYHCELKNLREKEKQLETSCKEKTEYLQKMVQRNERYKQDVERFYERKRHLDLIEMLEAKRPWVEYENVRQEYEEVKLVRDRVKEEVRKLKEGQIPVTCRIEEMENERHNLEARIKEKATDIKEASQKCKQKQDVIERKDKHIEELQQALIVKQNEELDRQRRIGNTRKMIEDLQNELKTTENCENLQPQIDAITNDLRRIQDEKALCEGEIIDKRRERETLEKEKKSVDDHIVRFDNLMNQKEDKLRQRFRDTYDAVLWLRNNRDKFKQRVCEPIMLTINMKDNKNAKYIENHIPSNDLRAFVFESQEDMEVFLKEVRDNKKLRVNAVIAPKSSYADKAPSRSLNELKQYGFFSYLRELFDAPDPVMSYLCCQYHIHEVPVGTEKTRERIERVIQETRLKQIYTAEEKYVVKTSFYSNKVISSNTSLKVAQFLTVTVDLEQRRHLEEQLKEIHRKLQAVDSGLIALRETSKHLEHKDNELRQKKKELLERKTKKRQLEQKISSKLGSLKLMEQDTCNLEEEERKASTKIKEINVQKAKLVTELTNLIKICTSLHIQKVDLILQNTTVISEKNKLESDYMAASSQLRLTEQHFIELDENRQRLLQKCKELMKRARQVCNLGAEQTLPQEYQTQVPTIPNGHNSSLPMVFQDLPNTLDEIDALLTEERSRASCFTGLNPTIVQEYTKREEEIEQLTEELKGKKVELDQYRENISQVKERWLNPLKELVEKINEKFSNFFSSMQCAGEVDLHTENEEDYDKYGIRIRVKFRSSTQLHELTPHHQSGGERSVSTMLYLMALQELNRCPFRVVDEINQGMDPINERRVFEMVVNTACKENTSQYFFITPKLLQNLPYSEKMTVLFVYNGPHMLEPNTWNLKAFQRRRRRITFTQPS
UniProt Q8TEB1, whole entry: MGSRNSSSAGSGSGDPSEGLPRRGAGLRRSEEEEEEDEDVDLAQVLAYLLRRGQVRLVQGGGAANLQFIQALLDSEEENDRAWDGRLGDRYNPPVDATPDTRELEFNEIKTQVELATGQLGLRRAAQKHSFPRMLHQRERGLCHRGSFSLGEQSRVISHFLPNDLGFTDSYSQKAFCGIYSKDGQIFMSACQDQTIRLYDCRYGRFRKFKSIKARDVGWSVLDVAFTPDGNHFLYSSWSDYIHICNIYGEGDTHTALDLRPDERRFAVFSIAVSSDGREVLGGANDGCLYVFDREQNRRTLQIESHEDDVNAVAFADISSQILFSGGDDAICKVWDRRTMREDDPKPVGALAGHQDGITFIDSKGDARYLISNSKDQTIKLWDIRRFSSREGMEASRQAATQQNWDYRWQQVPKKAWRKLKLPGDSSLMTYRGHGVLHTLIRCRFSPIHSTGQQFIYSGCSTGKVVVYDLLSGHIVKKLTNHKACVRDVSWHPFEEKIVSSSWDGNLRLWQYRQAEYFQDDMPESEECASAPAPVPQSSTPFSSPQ
UniProt Q8N5K1: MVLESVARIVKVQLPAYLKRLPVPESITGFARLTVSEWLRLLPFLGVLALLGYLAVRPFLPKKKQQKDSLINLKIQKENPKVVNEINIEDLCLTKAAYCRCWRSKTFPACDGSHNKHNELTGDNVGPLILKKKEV
UniProt Q8NBL1: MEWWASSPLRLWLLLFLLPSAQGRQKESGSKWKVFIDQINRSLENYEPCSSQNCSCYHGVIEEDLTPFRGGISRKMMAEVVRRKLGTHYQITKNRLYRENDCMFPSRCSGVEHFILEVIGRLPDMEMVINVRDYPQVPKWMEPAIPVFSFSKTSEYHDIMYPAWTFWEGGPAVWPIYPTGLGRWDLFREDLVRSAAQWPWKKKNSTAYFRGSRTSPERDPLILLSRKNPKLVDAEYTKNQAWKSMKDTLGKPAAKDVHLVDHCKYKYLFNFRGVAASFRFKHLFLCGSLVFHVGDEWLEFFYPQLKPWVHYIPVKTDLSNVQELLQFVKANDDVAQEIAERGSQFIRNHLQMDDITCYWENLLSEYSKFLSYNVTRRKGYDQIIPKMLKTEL
UniProt Q86X83, whole entry: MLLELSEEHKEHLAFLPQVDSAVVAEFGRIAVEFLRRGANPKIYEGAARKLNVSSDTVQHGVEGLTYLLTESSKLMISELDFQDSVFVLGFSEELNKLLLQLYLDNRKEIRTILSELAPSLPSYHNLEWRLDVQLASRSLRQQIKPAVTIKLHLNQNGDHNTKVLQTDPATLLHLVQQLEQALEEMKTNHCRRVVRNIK
UniProt Q8IXS8: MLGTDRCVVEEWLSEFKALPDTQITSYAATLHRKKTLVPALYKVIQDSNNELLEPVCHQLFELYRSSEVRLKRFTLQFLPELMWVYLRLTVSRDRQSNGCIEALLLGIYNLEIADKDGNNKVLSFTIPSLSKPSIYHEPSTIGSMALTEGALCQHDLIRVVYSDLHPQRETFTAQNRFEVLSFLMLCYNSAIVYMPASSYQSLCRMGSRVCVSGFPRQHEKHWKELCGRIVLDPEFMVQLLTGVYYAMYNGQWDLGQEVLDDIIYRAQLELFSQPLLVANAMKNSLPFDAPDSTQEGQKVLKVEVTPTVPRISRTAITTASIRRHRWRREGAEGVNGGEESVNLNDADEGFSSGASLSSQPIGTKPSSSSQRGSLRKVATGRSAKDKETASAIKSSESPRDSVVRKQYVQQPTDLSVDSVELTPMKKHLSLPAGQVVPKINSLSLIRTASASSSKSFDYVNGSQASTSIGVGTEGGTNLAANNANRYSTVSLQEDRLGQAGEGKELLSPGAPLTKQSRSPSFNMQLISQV
UniProt Q86YS6: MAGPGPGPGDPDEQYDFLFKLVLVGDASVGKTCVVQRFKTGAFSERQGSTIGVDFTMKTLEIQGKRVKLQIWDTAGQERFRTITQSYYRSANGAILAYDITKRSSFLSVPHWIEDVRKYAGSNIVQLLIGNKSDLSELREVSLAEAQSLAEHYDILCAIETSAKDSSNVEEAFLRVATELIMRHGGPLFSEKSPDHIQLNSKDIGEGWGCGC

Target	NP40-soluble protein abundance (concentration: 0.1mM)	NP40-soluble protein abundance (concentration: 0.5mM)	NP40-soluble protein abundance (concentration: 1mM)	NP40-soluble protein abundance (concentration: 2mM)	NP40-soluble protein abundance (concentration: 4mM)	NP40-soluble protein abundance (concentration: 6mM)	NP40-soluble protein abundance (concentration: 8mM)	NP40-soluble protein abundance (concentration: 10mM)
UniProt Q86XI2 and related entries	1.1 ± 0.16	1.16 ± 0.17	1.09 ± 0.15	1.16 ± 0.22	1.13 ± 0.22	1.13 ± 0.18	1.13 ± 0.12	1.1 ± 0.22
UniProt Q8TBB5 and related entries	1.01 ± 0.035	1.06 ± 0.028	1.01 ± 0.016	1 ± 0.054	0.974 ± 0.022	0.989 ± 0.052	1.02 ± 0.056	0.977 ± 0.041
GEMIN5 (UniProt Q8TEQ6)	1.05 ± 0.049	1.07 ± 0.051	0.988 ± 0.047	1.02 ± 0.074	1.03 ± 0.061	1.01 ± 0.072	0.985 ± 0.026	0.965 ± 0.058
UniProt Q8NG31 and related entries	1.03 ± 0.017	1.02 ± 0.032	1.02 ± 0.013	1.04 ± 0.056	1.04 ± 0.053	1.04 ± 0.056	1.04 ± 0.055	1.03 ± 0.054
SMC5 (UniProt Q8IY18)	1.026 ± 0.0089	1.06 ± 0.036	1.03 ± 0.025	1.02 ± 0.03	1.009 ± 0.0054	1.04 ± 0.019	1.05 ± 0.031	1.03 ± 0.021
UniProt Q8TEB1 and related entries	0.991 ± 0.056	1.02 ± 0.033	0.948 ± 0.076	0.97 ± 0.046	0.938 ± 0.063	0.961 ± 0.033	0.96 ± 0.089	0.905 ± 0.038
UniProt Q8N8R7	1.15 ± 0.13	1.1 ± 0.025	1.138 ± 0.011	1.02 ± 0.014	1.09 ± 0.026	1.07 ± 0.13	1.13 ± 0.038	1.1 ± 0.07
CISD2 (UniProt Q8N5K1)	0.944 ± 0.084	0.917 ± 0.059	0.973 ± 0.089	0.955 ± 0.079	0.931 ± 0.097	0.926 ± 0.064	0.879 ± 0.13	0.901 ± 0.08
UniProt Q8NBL1	0.975 ± 0.019	0.975 ± 0.024	0.936 ± 0.029	0.935 ± 0.045	0.908 ± 0.064	0.927 ± 0.074	0.941 ± 0.028	0.924 ± 0.034
UniProt Q8IUD2 and related entries	0.966 ± 0.022	0.971 ± 0.069	0.993 ± 0.058	0.985 ± 0.091	0.96 ± 0.055	0.964 ± 0.081	0.99 ± 0.044	0.998 ± 0.064
UniProt Q86X83 and related entries	1.03 ± 0.035	1.03 ± 0.037	0.984 ± 0.04	0.958 ± 0.022	0.975 ± 0.013	0.938 ± 0.016	0.941 ± 0.028	0.935 ± 0.022
FAM126B (UniProt Q8IXS8)	1.04 ± 0.041	1.15 ± 0.003	1.14 ± 0.028	1.089 ± 0.0094	1.11 ± 0.017	1.14 ± 0.046	1.16 ± 0.015	1.14 ± 0.052
RAB43 (UniProt Q86YS6)	1.03 ± 0.075	0.995 ± 0.059	0.893 ± 0.047	0.929 ± 0.032	0.913 ± 0.031	0.894 ± 0.039	0.889 ± 0.068	0.851 ± 0.054
UniProt Q8N9V3 and related entries	0.99 ± 0.016	1.01 ± 0.015	0.951 ± 0.081	0.962 ± 0.067	0.926 ± 0.09	0.938 ± 0.095	0.92 ± 0.096	0.935 ± 0.12

Quoted from the listing.
Value for UniProt Q86X83 and related entries under NP40-soluble protein abundance (concentration: 8mM): 0.941 ± 0.028
Value for UniProt Q8TEB1 and related entries under NP40-soluble protein abundance (concentration: 2mM): 0.97 ± 0.046

From the supplement of paper PMC6411743
